The campaign covered roughly 300,000 compounds. About 5,400 (1.8%) were called active. The shares of active, inactive and inconclusive entries below differ from those in the screen. Calls come from the whole dose curve; tested in HEK293 cells. Potencies of inconclusive entries are doubtful fits and often do not repeat.
assay: qHTS for inhibitors of binding or entry into cells for Marburg Virus; settings: Marburg virus pseudotyped entry inhibition, cell reporter; activity change, negative = inhibition: at 37.8 µM (top of the series) unless noted
% is set by controls: 0 for no effect and ±100 for the full control effect; potency is the fitted concentration of half-maximal effect.

Compound	Potency	activity change, negative = inhibition
CCCCn1nnnc1SCC(=O)NCc1ccco1	inactive	–
Cc1ccc(CN2C3=NCCN3c3ccccc32)cc1	inconclusive: 7.08 µM [inhibitor, partial curve, poor fit]	–
COc1ccc(C(=O)C2CCCN(S(=O)(=O)c3cccnc3)C2)c(C)c1 (configuration not stated)	inconclusive: 2.51 µM [inhibitor, partial curve, poor fit]	–
O=C(Nc1noc2ccccc12)c1c(F)cccc1F	inconclusive: 0.891 µM [activator, full curve, poor fit]	–
Cc1ccc(-n2c3nc(=O)[nH]c(=O)c-3cc3cc([N+](=O)[O-])ccc32)cc1C	inconclusive: 12.6 µM [inhibitor, partial curve]	–
COc1cc(S(=O)(=O)n2nc(C)cc2C)ccc1Cl	inconclusive: 35.5 µM [inhibitor, single point]	–
COc1ccc(Cn2ccnc2SCC(=O)Nc2cccc(NC(C)=O)c2)cc1	inconclusive: 3.16 µM [inhibitor, partial curve, poor fit]	–
CN(CC(=O)NCc1ccc2c(c1)OCO2)S(=O)(=O)c1ccc(Br)s1	inactive	–
COc1ccc(C(=O)NCCN2CCCC2)cc1	inactive	–
Cc1nc([N+](=O)[O-])c(Br)n1CC(=O)c1cccc([N+](=O)[O-])c1	inconclusive: 20 µM [inhibitor, partial curve, poor fit]	–
CCC1CCc2c(c3ccccc3[nH]c2=O)O1 (configuration not stated)	inconclusive: 7.08 µM [inhibitor, partial curve, poor fit]	–
COc1ccc(N/C=C2\CCOC2=O)cc1	inactive	–
OC(c1ccccc1)(c1ccccc1)C1CCN(C(=S)NC2CCCC2)CC1	inconclusive: 11.2 µM [inhibitor, partial curve, poor fit]	–
CCOc1ccc(NC(=O)CCS(=O)(=O)c2ccc(Br)s2)cc1	inactive	–
CCOC(=O)c1c(C)c(-c2ccccc2)n(CC(=O)Nc2cccc(F)c2)c1C	inconclusive: 35.5 µM [inhibitor, single point]	–
COc1ccc(NC(=O)CSc2nnc3scc(-c4ccc(Cl)cc4)n23)cc1	inactive	–
COc1ccc(N2CC(C(=O)N/N=C/c3ccc(C)cc3)CC2=O)cc1 (configuration not stated)	inconclusive: 1.58 µM [inhibitor, partial curve, poor fit]	–
Cn1nnnc1SCCNCc1ccc(OCc2ccccc2)cc1	inconclusive: 0.794 µM [activator, full curve, poor fit]	–
COc1ccc(Cn2c(N)c(C#N)c3nc4ccccc4nc32)cc1	inactive	–
CC1=NN(C(=O)c2ccc(Br)cc2)C(O)(C(F)(F)OC(F)(F)F)C1 (configuration not stated)	inactive	–
CCCn1nnnc1NCc1ccccc1C	inactive	–
O=C(Cn1nnc2ccccc2c1=O)NCc1ccco1	inactive	–
Fc1ccc(Nc2c3c(nc4nncn24)CCC3)cc1	inactive	–
C=CCC(Nc1ccc(OC)cc1)C(=O)OCC (configuration not stated)	inconclusive: 0.133 µM [inhibitor, full curve, poor fit]	–

Four of the compounds above, with bars between the fields:
Compound | Potency | activity change, negative = inhibition
CCCn1nnnc1NCc1ccccc1C | inactive | –
O=C(Cn1nnc2ccccc2c1=O)NCc1ccco1 | inactive | –
Fc1ccc(Nc2c3c(nc4nncn24)CCC3)cc1 | inactive | –
C=CCC(Nc1ccc(OC)cc1)C(=O)OCC (configuration not stated) | inconclusive: 0.133 µM [inhibitor, full curve, poor fit] | –

The list goes on:

Compound	Potency	activity change, negative = inhibition
COc1cccc2c1[C@@H]1CN(CCCCn3c(=O)[nH]c4c(sc5ncc(-c6ccccc6)nc54)c3=O)C[C@@H]1CO2	active: 7.94 µM	–
Cc1cc(C(=O)N/N=C/c2ccc3c(c2)OCO3)c2ccccc2n1	inactive	–
CCc1[nH]nc(C(=O)N2CCCC(Nc3cccc(F)c3)C2)c1C (configuration not stated)	inactive	–
Cc1ccc2nc(-c3ccc(NC(=O)C(F)(F)F)cc3)sc2c1	–	inconclusive: 42% [activator] [at 46.1 µM]
CC(C)(C)C(=O)N1CCN(c2ncnc3scc(-c4ccccc4)c23)CC1	inconclusive: 25.1 µM [inhibitor, single point]	–
COc1ccccc1C(=O)NCC(=O)N/N=C/c1cccc(Cl)c1	inconclusive: 23.1 µM [inhibitor, single point]	–
CCOC(=O)/C(=N/Nc1ccc(OC)cc1)N1CCCc2ccccc21	inconclusive: 6.31 µM [inhibitor, single point]	–
Cc1nc2c(c(C)nn2-c2ccccc2)c(C)c1CCC(=O)Nc1ccc(F)cc1	inactive	–
O=C(CCNC(=O)c1ccc(Cl)cc1)Nc1cccc(S(=O)(=O)N2CCCCCC2)c1	inconclusive: 20 µM [inhibitor, partial curve, poor fit]	–
CC(=O)Nc1ccc2c(c1)ncn2-c1ccccc1	inconclusive: 2 µM [activator, partial curve, poor fit]	–
O=C(CSc1ccccn1)Nc1ccc2c(c1)OCCO2	inactive	–
O=[N+]([O-])c1ccc(CSc2nnc(SCc3ccccc3)s2)cc1	inactive	–
Cc1c(CCCl)c(Cl)n2c(nc3ccccc32)c1C#N	active: 5.01 µM	–
O=c1c2ccccc2nc(/C=C/c2ccc(O)cc2)n1CCc1ccccc1	inconclusive: 2.82 µM [inhibitor, partial curve, poor fit]	–
O=C1CC(C(=O)Nc2cccc(F)c2)n2ncnc2N1 (configuration not stated)	inconclusive: 3.55 µM [activator, full curve, poor fit]	–
CC(=O)c1ccc(NC(=O)C2=CC(c3cccs3)=NS(=O)(=O)N2C)cc1	inactive	–
CS(=O)(=O)N(CC(=O)NC1CCCCCC1)Cc1ccccc1	inactive	–
Cc1ccc(OCc2cc(C(=O)NC(C)Cc3cnccn3)no2)cc1C (configuration not stated)	inactive	–
COc1ccc(CNCc2ccc3c(c2)n(C)c(=O)n3C)cc1	inactive	–
CC(C)(C)NC(=S)NC(=O)C12CC3CCC(CC(C3)C1)C2	inactive	–
Cc1ccc(-c2csc(NC(=O)/C=C/c3ccco3)c2C(=O)O)cc1	inconclusive: 11.2 µM [inhibitor, partial curve, poor fit]	–
O=C(c1cc2nc(-c3ccco3)cc(C(F)(F)F)n2n1)N1CCN(Cc2ccccc2)CC1	inconclusive: 18.3 µM [inhibitor, single point]	–
Cc1cccc(N2C(=O)C[C@@H](N3CCN(Cc4ccc(Cl)cc4)CC3)C2=O)c1	inactive	–
COC(=O)c1cc(C(=O)OC)n(Cc2ccc(F)cc2)c1C	inactive	–

Compound	Potency	activity change, negative = inhibition
Cc1ccc(OCC(=O)NC(=S)Nc2ccc3c4c(cccc24)CC3)cc1	inconclusive: 35.5 µM [activator, single point]	–
CCN(CC)C(=O)c1ccc(NC(=O)COc2ccccc2F)cc1	inconclusive: 3.98 µM [activator, single point]	–
O=C(Nc1nonc1NC(=O)c1cccs1)c1cccs1	inconclusive: 10 µM [inhibitor, partial curve, poor fit]	–
O=C(CN1C(=O)NC2(CCCCCC2)C1=O)NCc1ccc(F)cc1	inconclusive: 1.26 µM [activator, single point]	–
Cn1c(=O)oc2cc(S(=O)(=O)CCC(=O)NCCc3ccccc3)ccc21	inactive	–
CCCOC(=O)c1ccc2c(c1)C(=O)N(c1ccccc1)C2=O	inconclusive: 2.31 µM [inhibitor, partial curve, poor fit]	–
COc1ccc(NC(=O)CSc2nnc(-c3cccnc3)o2)cc1	inactive	–
CN(CC(=O)Nc1ccc(S(=O)(=O)N2CCCC2)cc1)Cc1cccc(Cl)c1Cl	inconclusive: 18.4 µM [inhibitor, single point]	–
Cc1c(C(=O)OC2CCCCC2)[nH]c2c1C(=O)CC(c1ccccc1Cl)C2 (configuration not stated)	inconclusive: 5.62 µM [inhibitor, single point]	–
Cc1nc2nc(NC(=O)c3ccc(F)cc3)[nH]n2c(=O)c1Cc1ccccc1	inactive	–
Cc1[nH]n(-c2ccc([N+](=O)[O-])cc2)c(=O)c1C=NCCc1c(C)[nH]c2ccccc12	inconclusive: 35.5 µM [inhibitor, single point]	–
CCN(CC)CC1(O)CCN(C(=O)c2ccc(Cl)c(Cl)c2)CC1	inconclusive: 31.6 µM [activator, single point]	–
COc1cccc(/C=N/c2oc(-c3ccccc3)cc2C#N)c1O	inconclusive: 0.517 µM [inhibitor, full curve, poor fit]	–
Cc1occc1C(=O)NNC(=O)c1ccc(S(=O)(=O)N(C)C)cc1	inconclusive: 5.62 µM [activator, full curve, poor fit]	–
CCCCCCNC(=O)C(C(=O)OCC)C1CCCCC1 (configuration not stated)	inconclusive: 14.1 µM [inhibitor, single point]	–
CCOc1ccccc1N(C(=O)c1snc(C(N)=O)c1N)C(C(=O)NCc1ccccc1)c1ccc(O)cc1 (configuration not stated)	inconclusive: 25.1 µM [inhibitor, single point]	–
Cc1cc(C(=O)CN2C(=O)NC3(CCCCC3)C2=O)c(C)n1Cc1ccc2c(c1)OCO2	inactive	–
Cc1[nH]c2ccccc2c1C(O)CN1CCN(c2cccc(C(F)(F)F)c2)CC1 (configuration not stated)	inconclusive: 35.5 µM [inhibitor, single point]	–
O=C(N/N=C/c1ccc2c(c1)OCO2)c1cccs1	inconclusive: 11.2 µM [inhibitor, partial curve, poor fit]	–
C/C(=N\Nc1cccc2cccnc12)c1ccccn1	inconclusive: 14.1 µM [inhibitor, partial curve, poor fit]	–
Cc1ccc(OCC(=O)NCC2CCCO2)c(C)c1 (configuration not stated)	inconclusive: 0.562 µM [activator, full curve, poor fit]	–
Cc1[nH]c2ccccc2c1C(C[N+](=O)[O-])c1cccs1 (configuration not stated)	inconclusive: 28.2 µM [inhibitor, single point]	–
CC(C)Cn1c(N)c(C(=O)COC(=O)c2ccc(O)cc2O)c(=O)n(C)c1=O	inconclusive: 12.6 µM [inhibitor, partial curve, poor fit]	–
O=c1c2ccccc2nnn1CSc1nc2ccccc2[nH]1	inconclusive: 5.01 µM [activator, partial curve]	–

Exported bar-delimited: 2 of the compounds above.
Compound | Potency | activity change, negative = inhibition
CC(C)(C)C(=O)N1CCN(c2ncnc3scc(-c4ccccc4)c23)CC1 | inconclusive: 25.1 µM [inhibitor, single point] | –
COc1ccccc1C(=O)NCC(=O)N/N=C/c1cccc(Cl)c1 | inconclusive: 23.1 µM [inhibitor, single point] | –

— PubChem BioAssay AID540276 (National Center for Advancing Translational Sciences (NCATS), 2011)
